# Data: the supplement of paper PMC8728848
# This is one part of the list.
# B1: Thrombomodulin Lectin (Mus musculus) (protein)
# chain: LSALAKLQPTGSQCVEHECFALFQGPATFLDASQACQRLQGHLMTVRSSVAADVISLLLSQSSMDLGPWIGLQLPQGCDDPVHLGPLRGFQWVTGDNHTSYSRWARPNDQTAPLCGPLCVTVSTATEAAPGEPAWEEKPCETETQGFLCEFYFTASCRVDPIPVREDTKEEEGAGEPPVSPTPGSPTGPPSARPVLDEPRVPITQNPCPPLKECPPCAAPDLEGGPSVFIFPPKIKDVLMISLSPMVTCVVVDVSEDDPDVQISWFVNNVEVHTAQTQTHREDYNSTLRVVSALPIQHQDWMSGKAFACAVNNRALPSPIEKTISKPRGPVRAPQVYVLPPPAEEMTKKEFSLTCMITGFLPAEIAVDWTSNGRTEQNYKNTATVLDSDGSYFMYSKLRVQKSTWERGSLFACSVVHEGLHNHLTTKTISRSLGK
# Tests used:
# Experiment in all cases: glycan array binding signal (z-score within array); higher = stronger binding
# Conditions in all cases: glycan notation: IUPAC condensed, linker removed
# [1] = target: Man(a1-3)[Man(a1-6)]Man(a1-6)[Man(a1-3)]Man
# Procedure, shortened: (§1)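 The Consortium for Functional Glycomics database supplied 3228 glycan arrays, of which those lacking an available protein sequence were dropped. The binding signal, a within-array Z-score, was averaged across arrays of the same protein sequence and across linkers. Negative scores can be read as non-binding.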
# [2] = target: Man(a1-3)[Man(a1-6)]Man(a1-6)[Man(a1-3)]Man(b1-4)GlcNAc(b1-4)GlcNAc
# Procedure, shortened: as §1
# [3] = target: Man(a1-3)[Man(a1-6)]Man(b1-4)GlcNAc(b1-4)GlcNAc
# Procedure, shortened: as §1
# [4] = target: Man(a1-3)[Man(a1-6)]Man(b1-4)GlcNAc(b1-4)[Fuc(a1-6)]GlcNAc
# Procedure, shortened: as §1
# Man(a1-6)Man = target: Man(a1-6)Man
# Procedure, shortened: as §1
# Man(b1-4)GlcNAc = target: Man(b1-4)GlcNAc
# Procedure, shortened: as §1
# MurNAc(b1-4)GlcNAc = target: MurNAc(b1-4)GlcNAc
# Procedure, shortened: as §1
# Neu5Ac(a2-3)Gal = target: Neu5Ac(a2-3)Gal
# Procedure, shortened: as §1
# [5] = target: Neu5Ac(a2-3)Gal(b1-3)GalNAc
# Procedure, shortened: as §1
# [6] = target: Neu5Ac(a2-3)Gal(b1-3)GalNAc(b1-3)Gal(a1-4)Gal(b1-4)Glc
# Procedure, shortened: as §1
# [7] = target: Neu5Ac(a2-3)Gal(b1-3)GalNAc(b1-4)Gal(b1-4)Glc
# Procedure, shortened: as §1
# [8] = target: Neu5Ac(a2-3)Gal(b1-3)GalNAc(b1-4)[Neu5Ac(a2-3)]Gal(b1-4)Glc
# Procedure, shortened: as §1
# [9] = target: Neu5Ac(a2-3)Gal(b1-3)GalNAc(b1-4)[Neu5Ac(a2-8)Neu5Ac(a2-3)]Gal(b1-4)Glc
# Procedure, shortened: as §1
# [10] = target: Neu5Ac(a2-3)Gal(b1-3)GalNAc6S
# Procedure, shortened: as §1
# [11] = target: Neu5Ac(a2-3)Gal(b1-3)GlcNAc
# Procedure, shortened: as §1
# [12] = target: Neu5Ac(a2-3)Gal(b1-3)GlcNAc(b1-2)Man
# Procedure, shortened: as §1
# [13] = target: Neu5Ac(a2-3)Gal(b1-3)GlcNAc(b1-2)Man(a1-3)[GlcNAc(b1-4)][Neu5Ac(a2-3)Gal(b1-3)GlcNAc(b1-2)Man(a1-6)]Man(b1-4)GlcNAc(b1-4)GlcNAc
# Procedure, shortened: as §1
# [14] = target: Neu5Ac(a2-3)Gal(b1-3)GlcNAc(b1-2)Man(a1-3)[Neu5Ac(a2-3)Gal(b1-3)GlcNAc(b1-2)Man(a1-6)]Man(b1-4)GlcNAc(b1-4)GlcNAc
# Procedure, shortened: as §1
# [15] = target: Neu5Ac(a2-3)Gal(b1-3)GlcNAc(b1-2)[Neu5Ac(a2-3)Gal(b1-3)GlcNAc(b1-4)]Man(a1-6)[Neu5Ac(a2-3)Gal(b1-3)GlcNAc(b1-2)Man(a1-3)]Man(b1-4)GlcNAc(b1-4)GlcNAc
# Procedure, shortened: as §1
# [16] = target: Neu5Ac(a2-3)Gal(b1-3)GlcNAc(b1-3)Gal(b1-3)GlcNAc
# Procedure, shortened: as §1
# [17] = target: Neu5Ac(a2-3)Gal(b1-3)GlcNAc(b1-3)Gal(b1-4)GlcNAc
# Procedure, shortened: as §1
# [18] = target: Neu5Ac(a2-3)Gal(b1-3)GlcNAc(b1-3)GalNAc
# Procedure, shortened: as §1
# [19] = target: Neu5Ac(a2-3)Gal(b1-3)GlcNAc(b1-6)GalNAc
# Procedure, shortened: as §1
# [20] = target: Neu5Ac(a2-3)Gal(b1-3)GlcNAc6S
# Procedure, shortened: as §1
# [21] = target: Neu5Ac(a2-3)Gal(b1-3)[Fuc(a1-4)]GlcNAc
# Procedure, shortened: as §1
# [22] = target: Neu5Ac(a2-3)Gal(b1-3)[Fuc(a1-4)]GlcNAc(b1-3)Gal(b1-3)[Fuc(a1-4)]GlcNAc
# Procedure, shortened: as §1
# [23] = target: Neu5Ac(a2-3)Gal(b1-3)[Fuc(a1-4)]GlcNAc(b1-3)Gal(b1-4)[Fuc(a1-3)]GlcNAc
# Procedure, shortened: as §1
# [24] = target: Neu5Ac(a2-3)Gal(b1-3)[GlcNAc(b1-6)]GalNAc
# Procedure, shortened: as §1
# [25] = target: Neu5Ac(a2-3)Gal(b1-3)[Neu5Ac(a2-6)]GalNAc
# Procedure, shortened: as §1
# [26] = target: Neu5Ac(a2-3)Gal(b1-3)[Neu5Ac(a2-6)]GlcNAc(b1-3)[Fuc(a1-3)[Gal(b1-4)]GlcNAc(b1-6)]Gal(b1-4)Glc
# Procedure, shortened: as §1
# [27] = target: Neu5Ac(a2-3)Gal(b1-3)]Neu5Ac(a2-3)Gal(b1-4)]GlcNAc
# Procedure, shortened: as §1
# Neu5Ac(a2-3)Gal(b1-4)Glc = target: Neu5Ac(a2-3)Gal(b1-4)Glc
# Procedure, shortened: as §1
# [28] = target: Neu5Ac(a2-3)Gal(b1-4)GlcNAc
# Procedure, shortened: as §1
# [29] = target: Neu5Ac(a2-3)Gal(b1-4)GlcNAc(b1-2)Man
# Procedure, shortened: as §1
# [30] = target: Neu5Ac(a2-3)Gal(b1-4)GlcNAc(b1-2)Man(a1-3)[GlcNAc(b1-4)][Neu5Ac(a2-3)Gal(b1-4)GlcNAc(b1-2)Man(a1-6)]Man(b1-4)GlcNAc(b1-4)GlcNAc
# Procedure, shortened: as §1
# [31] = target: Neu5Ac(a2-3)Gal(b1-4)GlcNAc(b1-2)Man(a1-3)[Neu5Ac(a2-3)Gal(b1-4)GlcNAc(b1-2)Man(a1-6)]Man(b1-4)GlcNAc(b1-4)GlcNAc
# Procedure, shortened: as §1
# [32] = target: Neu5Ac(a2-3)Gal(b1-4)GlcNAc(b1-2)Man(a1-3)[Neu5Ac(a2-3)Gal(b1-4)GlcNAc(b1-2)Man(a1-6)]Man(b1-4)GlcNAc(b1-4)[Fuc(a1-6)]GlcNAc
# Procedure, shortened: as §1
# [33] = target: Neu5Ac(a2-3)Gal(b1-4)GlcNAc(b1-2)Man(a1-3)[Neu5Ac(a2-6)Gal(b1-4)GlcNAc(b1-2)Man(a1-6)]Man(b1-4)GlcNAc(b1-4)GlcNAc
# Procedure, shortened: as §1
binder,measurement,setting,value
B1,glycan array binding signal (z-score),[1],-0.093
same,glycan array binding signal (z-score),[2],0.618
same,glycan array binding signal (z-score),[3],0.13
same,glycan array binding signal (z-score),[4],-1.31
same,glycan array binding signal (z-score),Man(a1-6)Man,-0.089
same,glycan array binding signal (z-score),Man(b1-4)GlcNAc,0.217
same,glycan array binding signal (z-score),MurNAc(b1-4)GlcNAc,-0.179
same,glycan array binding signal (z-score),Neu5Ac(a2-3)Gal,-1.31
same,glycan array binding signal (z-score),[5],-0.397
same,glycan array binding signal (z-score),[6],-1.2
same,glycan array binding signal (z-score),[7],-1.02
same,glycan array binding signal (z-score),[8],-0.038
same,glycan array binding signal (z-score),[9],-0.054
same,glycan array binding signal (z-score),[10],-0.129
same,glycan array binding signal (z-score),[11],-0.01
same,glycan array binding signal (z-score),[12],0.18
same,glycan array binding signal (z-score),[13],-0.855
same,glycan array binding signal (z-score),[14],-0.688
same,glycan array binding signal (z-score),[15],0.153
same,glycan array binding signal (z-score),[16],-1.59
same,glycan array binding signal (z-score),[17],-1.3
same,glycan array binding signal (z-score),[18],-0.1
same,glycan array binding signal (z-score),[19],0.213
same,glycan array binding signal (z-score),[20],-0.318
same,glycan array binding signal (z-score),[21],0.523
same,glycan array binding signal (z-score),[22],-0.246
same,glycan array binding signal (z-score),[23],0.336
same,glycan array binding signal (z-score),[24],1.25
same,glycan array binding signal (z-score),[25],1.16
same,glycan array binding signal (z-score),[26],-0.645
same,glycan array binding signal (z-score),[27],-0.991
same,glycan array binding signal (z-score),Neu5Ac(a2-3)Gal(b1-4)Glc,0.498
same,glycan array binding signal (z-score),[28],0.503
same,glycan array binding signal (z-score),[29],-1.13
same,glycan array binding signal (z-score),[30],0.99
same,glycan array binding signal (z-score),[31],1.59
same,glycan array binding signal (z-score),[32],0.699
same,glycan array binding signal (z-score),[33],-0.525

# An excerpt from the list above, for reference:
binder,measurement,setting,value
B1,glycan array binding signal (z-score),[7],-1.02
same,glycan array binding signal (z-score),[8],-0.038
same,glycan array binding signal (z-score),[9],-0.054
same,glycan array binding signal (z-score),[10],-0.129
same,glycan array binding signal (z-score),[11],-0.01
same,glycan array binding signal (z-score),[12],0.18
same,glycan array binding signal (z-score),[13],-0.855
